# Results from publication doi:10.1101/2024.12.23.630104.
# Sequences of proteins named here, by UniProt entry; tags and fusion partners are left off.
# UniProt O15037: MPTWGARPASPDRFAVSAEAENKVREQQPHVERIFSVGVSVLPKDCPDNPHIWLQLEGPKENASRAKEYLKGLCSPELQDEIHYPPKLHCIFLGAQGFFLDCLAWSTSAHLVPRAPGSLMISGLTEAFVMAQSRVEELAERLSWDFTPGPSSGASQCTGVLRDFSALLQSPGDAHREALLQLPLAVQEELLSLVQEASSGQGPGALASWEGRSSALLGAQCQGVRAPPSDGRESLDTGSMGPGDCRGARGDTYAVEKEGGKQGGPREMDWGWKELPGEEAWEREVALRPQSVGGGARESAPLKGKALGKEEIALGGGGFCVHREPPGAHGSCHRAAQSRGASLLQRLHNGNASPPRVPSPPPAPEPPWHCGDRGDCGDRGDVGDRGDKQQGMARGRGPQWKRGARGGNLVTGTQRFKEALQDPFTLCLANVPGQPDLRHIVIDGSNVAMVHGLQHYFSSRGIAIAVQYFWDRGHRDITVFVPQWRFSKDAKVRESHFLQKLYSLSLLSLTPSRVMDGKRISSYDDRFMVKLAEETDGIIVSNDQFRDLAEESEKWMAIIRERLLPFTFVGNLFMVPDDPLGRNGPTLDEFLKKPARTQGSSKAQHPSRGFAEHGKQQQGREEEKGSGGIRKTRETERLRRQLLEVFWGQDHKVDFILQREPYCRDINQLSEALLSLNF
# UniProt Q7Z2W4: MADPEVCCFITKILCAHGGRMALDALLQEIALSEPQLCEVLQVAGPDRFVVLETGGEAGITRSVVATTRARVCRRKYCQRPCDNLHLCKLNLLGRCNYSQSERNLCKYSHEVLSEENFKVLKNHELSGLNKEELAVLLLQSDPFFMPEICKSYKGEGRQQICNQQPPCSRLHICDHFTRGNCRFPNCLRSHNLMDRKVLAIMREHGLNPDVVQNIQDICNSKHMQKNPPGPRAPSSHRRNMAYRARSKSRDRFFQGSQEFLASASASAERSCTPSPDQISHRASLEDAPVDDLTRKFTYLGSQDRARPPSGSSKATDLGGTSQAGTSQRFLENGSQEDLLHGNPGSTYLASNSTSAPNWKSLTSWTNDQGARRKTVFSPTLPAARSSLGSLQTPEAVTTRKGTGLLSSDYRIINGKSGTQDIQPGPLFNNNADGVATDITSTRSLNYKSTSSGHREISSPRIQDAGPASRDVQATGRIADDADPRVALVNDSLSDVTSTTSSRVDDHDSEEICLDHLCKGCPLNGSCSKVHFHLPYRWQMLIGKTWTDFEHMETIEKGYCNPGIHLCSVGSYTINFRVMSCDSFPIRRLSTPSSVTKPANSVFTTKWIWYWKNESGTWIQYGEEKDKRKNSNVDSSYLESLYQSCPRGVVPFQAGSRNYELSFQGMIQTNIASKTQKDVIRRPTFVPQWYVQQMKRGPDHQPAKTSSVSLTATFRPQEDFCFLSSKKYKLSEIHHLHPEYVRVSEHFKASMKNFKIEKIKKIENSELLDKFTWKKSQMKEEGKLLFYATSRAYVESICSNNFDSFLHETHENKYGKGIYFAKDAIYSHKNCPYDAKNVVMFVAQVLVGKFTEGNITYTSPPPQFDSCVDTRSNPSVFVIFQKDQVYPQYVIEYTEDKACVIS
# Results are given in words; binding and its absence hold for the method and conditions named. In cells and extracts the contact can be indirect. Some binding calls cover weakened binding; strength is not graded here.
# Target: wild type KHNYN-GFP (human) (UniProt O15037)
# Experiment: co-IP
substance,measurement,value
Zinc finger antiviral protein (ZAP) (from UniProt Q7Z2W4 1-902),binding,binds
